The supplement of paper PMC10032668
The list shows a part of the results. The list holds hits alone, and they repeat only in part.

Amino acid sequences for entries named in this document (tags omitted).
AURKB, Q96GD4, UniProt Q96GD4, whole entry: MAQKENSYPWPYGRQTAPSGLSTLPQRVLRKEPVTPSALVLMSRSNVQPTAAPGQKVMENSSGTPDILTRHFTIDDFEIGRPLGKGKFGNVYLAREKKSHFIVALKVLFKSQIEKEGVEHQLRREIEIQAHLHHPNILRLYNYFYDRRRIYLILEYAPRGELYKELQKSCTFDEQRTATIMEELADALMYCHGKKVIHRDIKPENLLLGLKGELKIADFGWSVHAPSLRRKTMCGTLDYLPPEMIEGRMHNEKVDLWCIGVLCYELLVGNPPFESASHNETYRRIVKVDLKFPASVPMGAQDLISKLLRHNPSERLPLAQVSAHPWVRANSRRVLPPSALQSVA
PSMC6, P62333, UniProt P62333, whole entry: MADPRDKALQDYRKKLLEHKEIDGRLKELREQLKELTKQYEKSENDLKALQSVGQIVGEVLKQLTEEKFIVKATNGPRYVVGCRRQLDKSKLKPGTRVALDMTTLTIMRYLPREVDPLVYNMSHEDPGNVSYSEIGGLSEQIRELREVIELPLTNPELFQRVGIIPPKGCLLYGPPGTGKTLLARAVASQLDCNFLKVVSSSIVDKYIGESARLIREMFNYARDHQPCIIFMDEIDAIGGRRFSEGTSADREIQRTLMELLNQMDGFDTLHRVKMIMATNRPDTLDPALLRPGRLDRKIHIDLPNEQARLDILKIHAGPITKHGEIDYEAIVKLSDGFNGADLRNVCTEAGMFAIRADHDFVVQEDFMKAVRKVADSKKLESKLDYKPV

How the values were obtained:
Assay in all cases: PRISMA enrichment of interactor (LFQ) in peptide spot vs all other peptide spots (log2 fold change); higher = stronger / more specific binding of the interactor to the peptide
ALDH4A1, P30038 = molecular target: ALDH4A1, P30038
Method: (§1)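 PRISMA: 15-aa overlapping tiles (offset 8 aa) of 60 microproteins, plus SOS1/GLUT1 control peptides, were spot-synthesized on cellulose membranes in triplicate. Membranes were incubated with benzonase-treated HEK293T lysate, and bound proteins were identified by LC-MS/MS with LFQ. Enrichment is the log2 fold change of each protein in one spot versus all other spots. Only interactors passing the significance cutoff are listed.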

AURKB, Q96GD4 = molecular target: AURKB, Q96GD4
Method: as §1

CRABP2, P29373 = molecular target: CRABP2, P29373
Method: as §1

CTTN, Q14247 = molecular target: CTTN, Q14247
Method: as §1

DDX28, Q9NUL7 = molecular target: DDX28, Q9NUL7
Method: as §1

EIF2D, P41214 = molecular target: EIF2D, P41214
Method: as §1

ESYT2, A0FGR8 = molecular target: ESYT2, A0FGR8
Method: as §1

GTF3C5, Q9Y5Q8 = molecular target: GTF3C5, Q9Y5Q8
Method: as §1

HEATR3, Q7Z4Q2 = molecular target: HEATR3, Q7Z4Q2
Method: as §1

HELLS, Q9NRZ9 = molecular target: HELLS, Q9NRZ9
Method: as §1

JUP, P14923 = molecular target: JUP, P14923
Method: as §1

KLF16, Q9BXK1 = molecular target: KLF16, Q9BXK1
Method: as §1

LSG1, Q9H089 = molecular target: LSG1, Q9H089
Method: as §1

MMTAG2, Q9BU76 = molecular target: MMTAG2, Q9BU76
Method: as §1

MRPL14, Q6P1L8 = molecular target: MRPL14, Q6P1L8
Method: as §1

NOC3L, Q8WTT2 = molecular target: NOC3L, Q8WTT2
Method: as §1

OGFR, Q9NZT2 = molecular target: OGFR, Q9NZT2
Method: as §1

PINX1, Q96BK5 = molecular target: PINX1, Q96BK5
Method: as §1

PPP1R12A, O14974 = molecular target: PPP1R12A, O14974
Method: as §1

PPP1R2, P41236 = molecular target: PPP1R2, P41236
Method: as §1

RBM34, P42696 = molecular target: RBM34, P42696
Method: as §1

SRRM1, Q8IYB3 = molecular target: SRRM1, Q8IYB3
Method: as §1

TIPIN, Q9BVW5 = molecular target: TIPIN, Q9BVW5
Method: as §1

TRIM26, Q12899 = molecular target: TRIM26, Q12899
Method: as §1

UTP3, Q9NQZ2 = molecular target: UTP3, Q9NQZ2
Method: as §1

YTHDC1, Q96MU7 = molecular target: YTHDC1, Q96MU7
Method: as §1

ORC6, Q9Y5N6 = molecular target: ORC6, Q9Y5N6
Method: as §1

POLD1, P28340 = molecular target: POLD1, P28340
Method: as §1

PSMC6, P62333 = molecular target: PSMC6, P62333
Method: as §1

PTCD3, Q96EY7 = molecular target: PTCD3, Q96EY7
Method: as §1

RIOK1, Q9BRS2 = molecular target: RIOK1, Q9BRS2
Method: as §1

SPOUT1, Q5T280 = molecular target: SPOUT1, Q5T280
Method: as §1

SUCLG2, Q96I99 = molecular target: SUCLG2, Q96I99
Method: as §1

THOC2, Q8NI27 = molecular target: THOC2, Q8NI27
Method: as §1

TRIP13, Q15645 = molecular target: TRIP13, Q15645
Method: as §1

USP34, Q70CQ2 = molecular target: USP34, Q70CQ2
Method: as §1

XRN1, Q8IZH2 = molecular target: XRN1, Q8IZH2
Method: as §1

hCG_1984214 = molecular target: hCG_1984214
Method: as §1

| Binder | PRISMA enrichment of interactor (log2) (ALDH4A1, P30038) | PRISMA enrichment of interactor (log2) (AURKB, Q96GD4) | PRISMA enrichment of interactor (log2) (CRABP2, P29373) | PRISMA enrichment of interactor (log2) (CTTN, Q14247) | PRISMA enrichment of interactor (log2) (DDX28, Q9NUL7) | PRISMA enrichment of interactor (log2) (EIF2D, P41214) | PRISMA enrichment of interactor (log2) (ESYT2, A0FGR8) | PRISMA enrichment of interactor (log2) (GTF3C5, Q9Y5Q8) | PRISMA enrichment of interactor (log2) (HEATR3, Q7Z4Q2) | PRISMA enrichment of interactor (log2) (HELLS, Q9NRZ9) | PRISMA enrichment of interactor (log2) (JUP, P14923) | PRISMA enrichment of interactor (log2) (KLF16, Q9BXK1) | PRISMA enrichment of interactor (log2) (LSG1, Q9H089) | PRISMA enrichment of interactor (log2) (MMTAG2, Q9BU76) | PRISMA enrichment of interactor (log2) (MRPL14, Q6P1L8) | PRISMA enrichment of interactor (log2) (NOC3L, Q8WTT2) | PRISMA enrichment of interactor (log2) (OGFR, Q9NZT2) | PRISMA enrichment of interactor (log2) (PINX1, Q96BK5) | PRISMA enrichment of interactor (log2) (PPP1R12A, O14974) | PRISMA enrichment of interactor (log2) (PPP1R2, P41236) | PRISMA enrichment of interactor (log2) (RBM34, P42696) | PRISMA enrichment of interactor (log2) (SRRM1, Q8IYB3) | PRISMA enrichment of interactor (log2) (TIPIN, Q9BVW5) | PRISMA enrichment of interactor (log2) (TRIM26, Q12899) | PRISMA enrichment of interactor (log2) (UTP3, Q9NQZ2) | PRISMA enrichment of interactor (log2) (YTHDC1, Q96MU7) | PRISMA enrichment of interactor (log2) (ORC6, Q9Y5N6) | PRISMA enrichment of interactor (log2) (POLD1, P28340) | PRISMA enrichment of interactor (log2) (PSMC6, P62333) | PRISMA enrichment of interactor (log2) (PTCD3, Q96EY7) | PRISMA enrichment of interactor (log2) (RIOK1, Q9BRS2) | PRISMA enrichment of interactor (log2) (SPOUT1, Q5T280) | PRISMA enrichment of interactor (log2) (SUCLG2, Q96I99) | PRISMA enrichment of interactor (log2) (THOC2, Q8NI27) | PRISMA enrichment of interactor (log2) (TRIP13, Q15645) | PRISMA enrichment of interactor (log2) (USP34, Q70CQ2) | PRISMA enrichment of interactor (log2) (XRN1, Q8IZH2) | PRISMA enrichment of interactor (log2) (hCG_1984214) |
| --- | --- | --- | --- | --- | --- | --- | --- | --- | --- | --- | --- | --- | --- | --- | --- | --- | --- | --- | --- | --- | --- | --- | --- | --- | --- | --- | --- | --- | --- | --- | --- | --- | --- | --- | --- | --- | --- | --- |
| LAEQRRPGMRLQNSG | 4.75 | 6.1 | 3.74 | 4.52 | 5.52 | 6.84 | 4.13 | 5.59 | 5.43 | 5.23 | 5.6 | 4.59 | 9.72 | 6.29 | 6.66 | 5.41 | 6.81 | 4.91 | 5.36 | 5.79 | 5.39 | 4.46 | 4.84 | 10.1 | 7.39 | 5.17 |  |  |  |  |  |  |  |  |  |  |  |  |
| GPAWWVVSEVLAEQR |  |  |  |  |  |  |  |  |  |  |  |  |  |  |  |  |  |  |  |  |  |  |  |  |  |  | 5.21 | 5.15 | 4.78 | 7.92 | 11.1 | 4.83 | 4.71 | 5.02 | 6.3 | 4.54 | 9.33 | 5.3 |
